In US7632972B2, “Compounds and methods for treatment of cancer and modulation of programmed cell death for melanoma and other cancer cells” (The Board of Trustees of the University of Illionis, priority 2003, dated 2009):

Experiments:
Type in all cases: cell-based, human
[1] = system: A549/ATCC; experiment: NCI 60 cell line screen (SRB), Non-Small Cell Lung Cancer
Description: (§1) The operation of this screen utilizes 60 different human tumor cell lines, representing leukemia, melanoma and cancers of the lung, colon, brain, ovary, breast, prostate, and kidney. The aim is to prioritize for further evaluation, synthetic compounds or natural product samples showing selective growth inhibition or cell killing of particular tumor cell lines. This screen is unique in that the complexity of a 60 cell line dose response produced by a given compound results in a biological response pattern which can be utilized in pattern recognition algorithms. Using these algorithms, it is possible to assign a putative mechanism of action to a test compound, or to determine that the response pattern is unique and not similar to that of any of the standard prototype compounds included in the NCl database (see DTP Overview tab). In addition, following characterization of various cellular molecular targets in the 60 cell lines, it may be possible to select compounds most likely to interact with a specific molecular target.
(§2) The human tumor cell lines of the cancer screening panel are grown in RPMI 1640 medium containing 5% fetal bovine serum and 2 mM L-glutamine. For a typical screening experiment, cells are inoculated into 96 well microtiter plates in 100 μL at plating densities ranging from 5,000 to 40,000 cells/well depending on the doubling time of individual cell lines. After cell inoculation, the microtiter plates are incubated at 37° C., 5% CO2, 95% air and 100% relative humidity for 24 h prior to addition of experimental drugs.
(§3) After 24 h, two plates of each cell line are fixed in situ with TCA, to represent a measurement of the cell population for each cell line at the time of drug addition (Tz). Experimental drugs are solubilized in dimethyl sulfoxide at 400-fold the desired final maximum test concentration and stored frozen prior to use. At the time of drug addition, an aliquot of frozen concentrate is thawed and diluted to twice the desired final maximum test concentration with complete medium containing 50 μg/ml gentamicin. Additional four, 10-fold or ½ log serial dilutions are made to provide a total of five drug concentrations plus control. Aliquots of 100 μl of these different drug dilutions are added to the appropriate microtiter wells already containing 100 μl of medium, resulting in the required final drug concentrations.
(§4) Following drug addition, the plates are incubated for an additional 48 h at 37° C., 5% CO2, 95% air, and 100% relative humidity. For adherent cells, the assay is terminated by the addition of cold TCA. Cells are fixed in situ by the gentle addition of 50 μl of cold 50% (w/v) TCA (final concentration, 10% TCA) and incubated for 60 minutes at 4° C. The supernatant is discarded, and the plates are washed five times with tap water and air dried. Sulforhodamine B (SRB) solution (100 μl) at 0.4% (w/v) in 1% acetic acid is added to each well, and plates are incubated for 10 minutes at room temperature. After staining, unbound dye is removed by washing five times with 1% acetic acid and the plates are air dried. Bound stain is subsequently solubilized with 10 mM trizma base, and the absorbance is read on an automated plate reader at a wavelength of 515 nm. For suspension cells, the methodology is the same except that the assay is terminated by fixing settled cells at the bottom of the wells by gently adding 50 μl of 80% TCA (final concentration, 16% TCA). Using the seven absorbance measurements [time zero, (Tz), control growth, (C), and test growth in the presence of drug at the five concentration levels (Ti)], the percentage growth is calculated at each of the drug concentrations levels. Percentage growth inhibition is calculated as: [(Ti−Tz)/(C−Tz)]×100 for concentrations for which Ti>/=Tz [(Ti−Tz)/Tz]×100 for concentrations for which Ti<Tz.
(§5) Three dose response parameters are calculated for each experimental agent. […]

[2] = system: HOP-62; experiment: as above
Description: as §1, §2, §3, §4, §5

[3] = system: HOP-92; experiment: as above
Description: as §1, §2, §3, §4, §5

[4] = system: NCI-H522; experiment: as above
Description: as §1, §2, §3, §4, §5

[5] = system: SK-MEL-28; experiment: NCI 60 cell line screen (SRB), Melanoma
Description: as §1, §2, §3, §4, §5

[6] = system: SK-MEL-2; experiment: NCI 60 cell line screen (SRB), Melanoma
Description: as §1, §2, §3, §4, §5

[7] = system: SK-MEL-5; experiment: NCI 60 cell line screen (SRB), Melanoma
Description: as §1, §2, §3, §4, §5

[8] = system: UACC-62; experiment: NCI 60 cell line screen (SRB), Melanoma
Description: as §1, §2, §3, §4, §5

[9] = system: SK-OV-3; experiment: NCI 60 cell line screen (SRB), Ovarian Cancer
Description: as §1, §2, §3, §4, §5

[10] = system: DU-145; experiment: NCI 60 cell line screen (SRB), Prostate Cancer
Description: as §1, §2, §3, §4, §5

[11] = system: PC-3; experiment: NCI 60 cell line screen (SRB), Prostate Cancer
Description: as §1, §2, §3, §4, §5

COc1cccc(CCNC(=O)CC(c2ccccc2)(c2ccccc2)c2ccccc2)c1 [Compound Z3]
Mean Optical Densities ([1]; Log10 Concentration −4.0): 0.369 | Mean Optical Densities ([1]; Log10 Concentration −5.0): 0.503 | Mean Optical Densities ([1]; Log10 Concentration −6.0): 0.825 | Mean Optical Densities ([1]; Log10 Concentration −7.0): 0.851 | Mean Optical Densities ([1]; Log10 Concentration −8.0): 0.895 | Mean Optical Densities ([2]; HOP-62, Log10 Concentration −4.0): 0.545 | Mean Optical Densities ([2]; HOP-62, Log10 Concentration −5.0): 0.722 | Mean Optical Densities ([2]; HOP-62, Log10 Concentration −6.0): 0.781 | Mean Optical Densities ([2]; HOP-62, Log10 Concentration −7.0): 0.811 | Mean Optical Densities ([2]; HOP-62, Log10 Concentration −8.0): 0.757 | Mean Optical Densities ([3]; HOP-92, Log10 Concentration −4.0): 0.924 | Mean Optical Densities ([3]; HOP-92, Log10 Concentration −5.0): 0.950 | Mean Optical Densities ([3]; HOP-92, Log10 Concentration −6.0): 1.181 | Mean Optical Densities ([3]; HOP-92, Log10 Concentration −7.0): 1.186 | Mean Optical Densities ([3]; HOP-92, Log10 Concentration −8.0): 1.227 | Mean Optical Densities ([4]; NCI-H522, Log10 Concentration −4.0): 0.808 | Mean Optical Densities ([4]; NCI-H522, Log10 Concentration −5.0): 0.859 | Mean Optical Densities ([4]; NCI-H522, Log10 Concentration −6.0): 1.018 | Mean Optical Densities ([4]; NCI-H522, Log10 Concentration −7.0): 0.976 | Mean Optical Densities ([4]; NCI-H522, Log10 Concentration −8.0): 1.047 | Mean Optical Densities ([5]; SK-MEL-28, Log10 Concentration −4.0): 0.472 | Mean Optical Densities ([5]; SK-MEL-28, Log10 Concentration −5.0): 0.499 | Mean Optical Densities ([5]; SK-MEL-28, Log10 Concentration −6.0): 0.479 | Mean Optical Densities ([5]; SK-MEL-28, Log10 Concentration −7.0): 0.503 | Mean Optical Densities ([5]; SK-MEL-28, Log10 Concentration −8.0): 0.444 | Mean Optical Densities ([6]; SK-MEL-2, Log10 Concentration −4.0): 0.772 | Mean Optical Densities ([6]; SK-MEL-2, Log10 Concentration −5.0): 0.805 | Mean Optical Densities ([6]; SK-MEL-2, Log10 Concentration −6.0): 1.211 | Mean Optical Densities ([6]; SK-MEL-2, Log10 Concentration −7.0): 1.144 | Mean Optical Densities ([6]; SK-MEL-2, Log10 Concentration −8.0): 1.116 | Mean Optical Densities ([7]; SK-MEL-5, Log10 Concentration −4.0): 0.700 | Mean Optical Densities ([7]; SK-MEL-5, Log10 Concentration −5.0): 0.745 | Mean Optical Densities ([7]; SK-MEL-5, Log10 Concentration −6.0): 1.438 | Mean Optical Densities ([7]; SK-MEL-5, Log10 Concentration −7.0): 1.431 | Mean Optical Densities ([7]; SK-MEL-5, Log10 Concentration −8.0): 1.192 | Mean Optical Densities ([8]; UACC-62, Log10 Concentration −4.0): 0.783 | Mean Optical Densities ([8]; UACC-62, Log10 Concentration −5.0): 0.753 | Mean Optical Densities ([8]; UACC-62, Log10 Concentration −6.0): 0.861 | Mean Optical Densities ([8]; UACC-62, Log10 Concentration −7.0): 1.029 | Mean Optical Densities ([8]; UACC-62, Log10 Concentration −8.0): 1.074 | Mean Optical Densities ([9]; SK-OV-3, Log10 Concentration −4.0): 0.877 | Mean Optical Densities ([9]; SK-OV-3, Log10 Concentration −5.0): 0.862 | Mean Optical Densities ([9]; SK-OV-3, Log10 Concentration −6.0): 0.936 | Mean Optical Densities ([9]; SK-OV-3, Log10 Concentration −7.0): 0.944 | Mean Optical Densities ([9]; SK-OV-3, Log10 Concentration −8.0): 0.906 | Mean Optical Densities ([10]; DU-145, Log10 Concentration −4.0): 0.329 | Mean Optical Densities ([10]; DU-145, Log10 Concentration −5.0): 0.431 | Mean Optical Densities ([10]; DU-145, Log10 Concentration −6.0): 0.504 | Mean Optical Densities ([10]; DU-145, Log10 Concentration −7.0): 0.521 | Mean Optical Densities ([10]; DU-145, Log10 Concentration −8.0): 0.506 | Mean Optical Densities ([11]; PC-3, Log10 Concentration −4.0): 0.439 | Mean Optical Densities ([11]; PC-3, Log10 Concentration −5.0): 0.640 | Mean Optical Densities ([11]; PC-3, Log10 Concentration −6.0): 1.008 | Mean Optical Densities ([11]; PC-3, Log10 Concentration −7.0): 1.050 | Mean Optical Densities ([11]; PC-3, Log10 Concentration −8.0): 1.080
